This series can be described thus: Body weight and feed efficiency, thioacetamide (TAA) liver fibrosis model. The series is classed as in vivo, Wistar rats. The conditions noted are these: CNS group: 200 mg/kg-bw carnosine oral gavage daily, 10 weeks, TAA 100 mg/kg-bw i.p. Here is the method: Forty male Wistar rats of 5-week old were purchased from BioLASCO Taiwan Co., Ltd. (Taipei, Taiwan). Two rats were housed in one cage in an animal room at 22±2° C. with a 12/12 h light-dark cycle. After one week of acclimation, the mice were randomly divided into 5 groups:
(a) The control group (The CON group): intraperitoneal injection of 0.3 mL normal saline, and administration of 0.5 mL ddH2O by oral gavage;
(b) The thioacetamide group (The TAA group): intraperitoneal injection of 100 mg TAA/kg-body weight (bw) in 0.3 mL ddH2O and administration of 0.5 mL ddH2O by oral gavage;
(c) The composition of the chicken liver hydrolysates with low dosage (The CLH-L group): intraperitoneal injection of 100 mg TAA/kg-bw in 0.3 mL ddH2O and administration of 200 mg/kg-bw CLH in 0.5 mL ddH2O by oral gavage; […]
The experiment was conducted by a complete randomized design. The raw data was expressed as “mean±SEM”. The data was analyzed by analysis of variance (ANOVA) and Fisher's Least Significant Different (LSD) test was used to distinguish significant differences among groups. […]

In the case of `NCCC(=O)N[C@@H](Cc1cnc[nH]1)C(=O)O` [CNS, carnosine], the Food intake is reported as 28.43 ± 0.50^ab g/rat/day and the Water intake is recorded as 44.70 ± 4.68^a mL/rat/day.
